Experimental data as given in patent US20240196946A1, “METABOLICALLY MODIFIED VANILLA BEANS AND METHODS FOR PRODUCING SAME” (VANILLA TECHNOLOGIES LTD., priority 2021, published 2024).

System: vanilla beans
Assay: Flavor test by a sensory panel (Example 5)
Settings: FIG. 7, FIG. 8, beans treated with compounds of Table 3

Q: `NCC(=O)O` [Treatment 6, Glycine] was tested. Which “flavor perceived by sensory panel” value did it give?
A: non-vanillic flavor

Q: Which “flavor perceived by sensory panel” value does the source give for `N[C@@H](Cc1ccc(O)cc1)C(=O)O` [Treatment 8, Tyrosine] here?
A: non-vanillic flavor

Q: Which “flavor perceived by sensory panel” value does the source give for `O=C(O)c1ccco1` [Treatment 9, 2-Furoic acid] here?
A: strong vanillic flavor

Q: What does the source list for `C[C@H](N)C(=O)O` [Treatment 10, Alanine]?
A: flavor perceived by sensory panel (listed as 10): non-vanillic flavor; flavor perceived by sensory panel (listed as alanine): mostly vinegar-sour and fruity flavor

Q: How did the “flavor perceived by sensory panel” value (listed as 11) turn out when `O=C(O)[C@@H]1CCCN1` [Treatment 11, Proline] was run?
A: non-vanillic flavor

Q: What about the “flavor perceived by sensory panel” value (listed as Proline) of the same compound?
A: strong flavor of baked nuts
